Where “and” joins values, the source holds several entries; their conditions need not be identical. Equal entries are not always repeated. The list shows a part of the results. Each value is one well over the wells without odorant, computed here; the data are noisy.
Tests used:
Assay in all cases: odorant receptor activation (CRE luciferase / Renilla) (fold of no-odor wells); higher = more activation
Settings in all cases: 100 µM
[1] = test system: OR10H5 A224D clone 1294
[2] = test system: OR10J1 clone 1711
[3] = test system: OR10J3 clone 1458
[4] = test system: OR10J5 R233W clone 1410
[5] = test system: OR10J5 clone 1037
[6] = test system: OR10K1 clone 1024
[7] = test system: OR10K2 clone 1040
[8] = test system: OR10P1 clone 1254
[9] = test system: OR10Q1 clone 1202
[10] = test system: OR10R2 A191T/E216G/L239F clone 1304

SMILES	odorant receptor activation [1]	odorant receptor activation [2]	odorant receptor activation [3]	odorant receptor activation [4]	odorant receptor activation [5]	odorant receptor activation [6]	odorant receptor activation [7]	odorant receptor activation [8]	odorant receptor activation [9]	odorant receptor activation [10]
C=CCSCC=C [diallyl sulfide]	1.11	0.6	1.02	1.02	0.832	1.31	1.03	0.938	0.942	0.978
CC(=O)OC(C)(C)C1CC=C(C)CC1 (stereo not drawn) [terpinyl acetate]	0.807	1.01	0.942	1.1	1.31	1.09	1.58	0.965	1.1	0.772
COc1cc(C=O)ccc1O [vanillin]	0.85	0.964	1.32	0.988	0.974	0.894	0.995	0.877	0.87	0.966
CC(C)CC(=O)O [isovaleric acid]	0.84	0.941	1.1	0.934	1.29	1.4	1.05	0.82	1.45	0.726
CC(C)C=O [isobutyraldehyde]	0.997 and 0.967	0.931	0.931	0.899	1.23	0.819	1.38	1.27 and 1.44	1.14	0.993 and 0.618
CC12CCC(C1)C(C)(C)C2=O (stereo not drawn) [fenchone]	0.84	0.589	0.798	0.923	0.902	1.19	1.1	1.04	0.928	0.881
c1cnccn1 [pyrazine]	0.918	0.81	0.977	1.1	0.843	1.05	1.23	0.778	0.698	0.876
CC(=O)OC1CC2CCC1(C)C2(C)C (stereo not drawn) [isobornyl acetate]	1.25 and 1.05	0.763	0.837	0.915	1.54	1.7	0.498	1.07 and 2.34	1.14	1.05 and 0.725
O=CCc1ccccc1 [phenyl acetaldehyde]	1.49	0.781	1.09	1.65	1.05	0.932	1.39	1.3	0.817	0.895
CCCCCC(=O)O [caproic acid]	0.852	0.871	1.34	0.169	1.17	1.24	0.988	0.66	1.14	0.849
COc1cc(C)ccc1O [2-methoxy-4-methylphenol]	0.91	0.711	0.921	1.29	1.75	3.43	1.54	1.14	1.18	0.969
CCCCCCCCCC=O [decyl aldehyde]	1.25	0.675	0.861	1.17	1.02	1.4	1.3	1.3	1.2	1.17
O=C1CCCCCCCCCCCCCCO1 [pentadecalactone]	0.847	0.851	0.973	1.4	1.02	0.749	1.08	0.657	0.701	0.703
CCC1(O)C2(C)CCC(C2)C1(C)C (stereo not drawn) [2-ethylfenchol]	0.553	0.701	0.746	0.636	3.03	3.58	2.35	1.03	1.52	0.771
CCCCCCCC=O [octyl aldehyde]	1.02	0.932	0.79	1.03	1.06	1.23	1	1.14	0.995	1.08
CC12CCC(CC1)C(C)(C)O2 [cineole]	0.967	1.05	1.41	0.171	0.814	0.886	0.761	0.758	0.943	1.01
CC1CCC(C(C)C)C(O)C1 (single isomer, unassigned; (-)) [(-)-menthol]	0.592	0.708	0.727	1.57	3.95	4.59	2.45	0.841	1.32	0.751
CCCCCCCCOC(C)=O [octyl acetate]	1.09	0.986	0.917	1.17	0.997	1.07	0.968	0.904	0.863	1.09
C=CCc1ccc(O)c(OC)c1 [eugenol]	2.44 and 1.66	1.25	1.28	1.31 and 1.23	2.2 and 1.23	1.32 and 1.52	2.93 and 1.47	2.04 and 1.42	1.18 and 1.17	1.2

SMILES	odorant receptor activation [1]	odorant receptor activation [2]	odorant receptor activation [3]	odorant receptor activation [4]	odorant receptor activation [5]	odorant receptor activation [6]	odorant receptor activation [7]	odorant receptor activation [8]	odorant receptor activation [9]	odorant receptor activation [10]
CC/C=C\CCO [cis-3-hexen-1-ol]	0.996	0.972	1.25	0.161	0.925	1.72	0.943	0.871	0.955	1.04
CCCC(=O)O [butyric acid]	0.871	0.856	1.43	0.21	1.43	1.28	1.15	0.799	0.91	0.853
CCCCCCCCC=O [nonyl aldehyde]	1.09	0.836	1.19	0.974	0.936	1.27	0.844	0.992	0.988	1.14
CC(=O)OCC=C(C)CCC=C(C)C [geranyl acetate]	1.49 and 1.15	1.28	1.15	1.18	1.68	1.89	1.16	1.62 and 2.89	1.51	1.02 and 0.953
CCCCCCCC=CC=O [2-decenal]	0.637	0.879	1.18	2.06	15.8	10.1	6.01	0.766	1.05	1.27
CCCCO [1-butanol]	0.527	0.79	0.903	1.11	3.21	3.64	2.53	0.892	1.08	0.961
CC1=CCC(C(C)(C)O)CC1 (stereo not drawn) [terpineol]	0.843	1.02	0.721	1.12	1.06	0.963	1.07	0.981	1.01	0.839
C=CCc1ccc(OC(C)=O)c(OC)c1 [eugenol acetate]	1.58	2.29	1.73	1.69	1.67	1.87	1.63	1.74	2.23	1.64
CCCCCCCOC(C)=O [heptyl acetate]	0.947 and 0.966	0.569	0.804	0.977	1.02	0.873	0.923	1.04 and 2.42	1.16	1.03 and 0.547
CC1=NC(C)SC1C (stereo not drawn)	2.41	–	–	0.931	1.19	0.799	1.34	2.44	1.14	0.759
CC(C)C(=O)O [isobutyric acid]	0.875 and 1.18	0.874	0.948	0.938	0.97	0.911	0.888	1.09 and 1.5	1.19	1.18 and 0.526
CC(C)=CCCC(C)=CC=O [citral]	0.924	0.97	1.11	0.225	1.4	1.66	1.17	0.92	1.29	1.17
C=C(C)C1CCC2=CC(=O)CC(C)C2(C)C1 (stereo not drawn) [amyl laurate]	–	1.33	1.73	–	–	–	–	–	–	–
CCCCCCC=O [heptaldehyde]	0.524 and 0.932 and 0.746	0.853	0.759	0.912 and 0.871	1.37 and 1.68	0.85 and 1.23	2.12 and 1.04	–	0.391 and 0.998	0.524 and 0.848 and 0.827
CC=Cc1ccc(O)c(OC)c1 [isoeugenol]	1.39 and 1.12	0.974	6.42	1.53	1.9	0.854	0.947	1.75 and 4.23	1.2	0.96 and 0.879
CC(C)CCC(=O)O [4-methylvaleric acid]	0.956	0.728	0.866	1.7	1.76	2.47	1.94	0.973	1.81	1.1
COC(=O)c1ccccc1 [methyl benzoate]	0.533	–	–	0.703	1.08	1.81	2.34	0.594	0.759	0.716
CCCCCCCCCCC=O [undecanal]	1.05	0.988	0.893	1.19	1.19	1.04	1.11	1.07	0.955	0.954
CC1CCC(C(C)C)C(O)C1 (single isomer, unassigned; (+)) [(+)-menthol]	0.564	0.666	0.971	1.07	3.08	3.67	2.71	0.834	1.12	0.844

Two records picked at random from those above, as already listed:
SMILES	odorant receptor activation [1]	odorant receptor activation [2]	odorant receptor activation [3]	odorant receptor activation [4]	odorant receptor activation [5]	odorant receptor activation [6]	odorant receptor activation [7]	odorant receptor activation [8]	odorant receptor activation [9]	odorant receptor activation [10]
CC1CCC(C(C)C)C(O)C1 (single isomer, unassigned; (+)) [(+)-menthol]	0.564	0.666	0.971	1.07	3.08	3.67	2.71	0.834	1.12	0.844
C=CCc1ccc(OC(C)=O)c(OC)c1 [eugenol acetate]	1.58	2.29	1.73	1.69	1.67	1.87	1.63	1.74	2.23	1.64

Further records

SMILES	odorant receptor activation [1]	odorant receptor activation [2]	odorant receptor activation [3]	odorant receptor activation [4]	odorant receptor activation [5]	odorant receptor activation [6]	odorant receptor activation [7]	odorant receptor activation [8]	odorant receptor activation [9]	odorant receptor activation [10]
O=C1CCCCC1 [Cyclohexanone]	0.693	–	–	0.779	0.789	0.895	1.33	0.518	0.969	0.792
CCCCCCOC(=O)CCC [hexyl butyrate]	1.26 and 1.12	0.756	0.935	1.03	1.56	1.18	0.518	0.927 and 1.67	1.11	1.04 and 0.529
CCCCCOC(C)=O [n-amyl acetate]	0.518	0.867	1.12	0.681	1.01	1.72	1.56	0.526	0.607	0.643
COc1ccccc1O [guaiacol]	0.877 and 1.14	0.797	0.844	0.77	1.63	1.24	0.965	1.15 and 2.5	1.05	0.796 and 0.784
CC(C)(O)CCCC1=CCC(C=O)CC1 (stereo not drawn) [lyral]	–	1.13	1.21	–	–	–	–	–	–	–
C=C(C)C1CC=CCC1 (stereo not drawn) [r-limonene]	–	0.772	0.997	1.52 and 0.893	1.17	0.804 and 1.17	1.12 and 2.48	1.05 and 0.431	0.83 and 0.358	0.871 and 0.384
C=C(C)C1CC=C(C)C(=O)C1 (stereo not drawn) [r-carvone]	0.883	0.791	1.14	1.18	0.817	1.01	0.847	0.802	0.882	0.719
CC1COCc2cc3c(cc21)C(C)(C)C(C)C3(C)C (stereo not drawn) [galaxolide]	–	1.67 and 0.923	1.05 and 1.12	2.9	4.59	7.41	3.37	–	4.08	–
CC12C=CCC1C1CCC3=CC(=O)CCC3(C)C1CC2 (stereo not drawn) [androstadienone]	1.68 and 0.946	–	–	1.06	1.27	1.27	1.6	1.47 and 2.23	1.18	0.982 and 0.792
CC(=O)C(C)=O [diacetyl]	1.15	0.597	0.984	0.983	0.973	1.46	1.07	1.14	1.17	1.3
C=CC(C)(O)CCC=C(C)C (stereo not drawn) [linalool]	0.738	0.907	1.16	1.16	1.51	1.43	1.04	0.927	0.947	0.936
O=C1CCCCCCCCCCCC(=O)OCCO1 [ethylene brassylate]	1.51	1.24	1.7	1.85	1.54	1.54	1.57	1.88	1.48	1.44
CCCCCC(C)=O [2-heptanone]	1.02	–	–	0.802	0.407	0.829	0.957	2.02	1.14	1.04
c1ccc(Oc2ccccc2)cc1 [diphenyl ether]	0.951	0.614	0.899	0.946	0.892	1.04	1.1	0.997	0.802	1.01
C=CCc1ccc(OC)c(OC)c1 [eugenol methyl ether]	1.53	0.706	1.04	1.51	1.56	1.54	1.43	1.44	1.69	1.61
CC(C)(C)c1ccc(CCC=O)cc1 [bourgeonal]	0.769	–	–	0.167	1.65	1.21	0.763	0.65	0.865	0.781
COC(=O)c1ccccc1O [methyl salicylate]	0.78	1.14	0.811	1.18	0.988	1.17	0.846	0.906	1.02	0.922
CC(=O)c1ccccc1 [acetophenone]	1.02	–	–	0.857	0.982	0.997	1.86	0.706	0.959	2
CC12C=CCC1C1CCC3CC(=O)CCC3(C)C1CC2 (stereo not drawn) [androstenone]	1.21	–	–	1.32	1.75	2.2	1.42	0.897	5.74	1.31
